The list shows a part of the results. These are further read-outs of the screen, such as a control signal, another cell line or another target. No call is given for them. Most of these compounds were active or inconclusive in the main read-out, so they are no random draw. The note in brackets gives the kind of curve behind each potency; many fits are weak.
Test: IkB Signaling
Details: ABC-DLBCL IkBa-CBG/CBR dual luciferase ratio (green luciferase fused to IkBa over red control in OCI-Ly3 lymphoma cells), 4 h
Outline: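 Curves were fitted separately to fusion (green), unfused (red) and ratio luminescence, then classed by r2, magnitude and activity. Cells: OCI-Ly3, 4 h compound plus doxycycline at 37C; 10 uM MG-132 defined full response.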

[1] = measured here: control luc red channel unless noted

COc1cccc(CNC(=O)CSc2ncc3c(n2)-c2cc(Cl)ccc2N(C)S3(=O)=O)c1
AC50 [1]: 39.8 µM [rising, single point]

CC(=O)c1c(C)[nH]c(C(=O)OCCCCN2C(=O)c3ccccc3C2=O)c1C
AC50 (measured here: IkB-luc green channel): 31.6 µM [falling, partial curve] | AC50 (measured here: control luc red channel): 10 µM [falling, partial curve]

CCc1ccc(NC(=O)c2ccc(F)c(S(=O)(=O)NC3CCCCCC3)c2)cc1
AC50 [1]: 25.1 µM [falling, partial curve]

Cc1c(Cl)cccc1NC(=O)CN1C(=O)COc2ccc(S(=O)(=O)N3CCCCCC3)cc21
AC50 [1]: 0.0794 µM [rising, full curve, poor fit]

Cc1cc(C(F)F)n2nc(C(=O)Nc3cc(Cl)ccc3C)nc2n1
AC50 [1]: 10 µM [rising, partial curve]

CC1CCc2noc(NC(=O)c3ccccc3[N+](=O)[O-])c2C1 (stereo not drawn)
AC50 [1]: 25.1 µM [falling, single point]

Cc1cc(=O)n2[nH]c(-c3ccc(F)cc3)nc2n1
AC50 [1]: 25.1 µM [falling, partial curve]

CCc1nnc(NC(=O)CSc2nnc(CNc3ccc(Cl)cc3)o2)s1
AC50 [1]: 39.8 µM [falling, single point]

Cn1c(SCC(=O)Nc2ccc(F)cc2)nnc1-c1cccnc1
AC50 [1]: 5.01 µM [falling, partial curve]

COc1ccc(C(=O)Oc2c(Sc3ccc(Cl)cc3)c(C)nn2C(C)(C)C)cc1OC
AC50 [1]: 1.58 µM [falling, partial curve]

COC(=O)c1cc(NC(=O)C2COc3ccccc3O2)ccc1Cl (stereo not drawn)
AC50 [1]: 20 µM [falling, single point]

COc1ccc(NC(=O)CCCn2c(=O)c3cccn3c3ccccc32)c(OC)c1
AC50 [1]: 0.631 µM [rising, full curve]

O=C(Cn1c(=O)c2ccccc2n(CC(=O)Nc2ccc(Cl)cc2)c1=O)NCCc1ccccc1
AC50 [1]: 6.31 µM [falling, partial curve]

CCOC(=O)c1c(C)[nH]c(CCC(=O)NCCCN2CCN(c3cc(Cl)ccc3C)CC2)c1C
AC50 [1]: 31.6 µM [falling, single point]

Cc1c(CCNC(=O)Cc2ccc(F)cc2)sc2nc(-c3ccc(F)cc3)nn12
AC50 [1]: 10 µM [falling, single point]

CCOc1ccc(C(=O)Nc2cccc(OCc3cc(=O)n4ccccc4n3)c2)cc1
AC50 [1]: 0.126 µM [falling, full curve]

COC(=O)c1cc(COC(=O)c2ccc(OC)c(S(=O)(=O)N3CCCC3)c2)oc1C
AC50 [1]: 39.8 µM [falling, single point]
